Data as given in PubChem BioAssay AID504764 (Drosophila RNAi Screening Center, 2011).
Purpose: 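Genes whose knock-down alters Notch-dependent transcription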 (primary screen). System: Drosophila Kc167 cells. Knock-down reagent: long dsRNA against Drosophila genes. Duration: about 5 days (4 days dsRNA, then 24 h after transfection). Treatment: transfection of constitutively active membrane-tethered Notch lacking the extracellular domain, read 24 h later. Measured: 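Light from a Notch-responsive E(spl)m3 luciferase reporter under active Notch, with control-promoter and no-Notch reporter wells to normalise; raw counts from paired wells a and b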. Reading the numbers: induced reporter light, run 1, well a and induced reporter light, run 1, well b: higher = more light from the Notch target reporter with active Notch; control promoter light, run 1, well a and control promoter light, run 1, well b: higher = more light from the viral control promoter (cell number, transfection, viability); uninduced reporter light, run 1, well a: higher = more light from the Notch target reporter without active Notch. Active means: 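Wells with low control signal or poorly matching duplicates excluded; duplicates averaged; per source plate, z beyond ±2 for induced/control log2 ratio or beyond ±1.8 for induced/uninduced marks a hit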. Calls: active = modifier hit (raised or lowered Notch signal); inactive = not a hit.
The deposit covers about 22,000 reagents; shown is an unselected part of those with a known target gene and a result. Of all reagents, 403 (1.9%) are marked active. 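Unnormalised raw counts per well; ratio z-scores behind the hit calls and whether each hit raises or lowers signal are not deposited.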 The numbers tell different reagents against one gene apart. Not stated in the record: the amount of reagent.

target gene	reagent	induced reporter light, run 1, well a	induced reporter light, run 1, well b	control promoter light, run 1, well a	control promoter light, run 1, well b	uninduced reporter light, run 1, well a	call
CG3649 (GeneID 37626)	1	2.30e5	1.81e5	1.79e5	1.88e5	11935	inactive
cact (GeneID 34969)	1	1.82e5	1.47e5	1.35e5	1.48e5	14945	inactive
Fili (GeneID 5740472)	1	73850	58880	76200	78450	7655	inactive
Fili (GeneID 5740472)	2	33270	37295	36705	33505	2950	inactive
Fili (GeneID 5740472)	3	32470	41440	35575	50815	2050	inactive
CG10492 (GeneID 35177)	1	40110	40520	19855	19880	9255	inactive
CG12547 (GeneID 3355145)	1	63375	1.00e5	1.21e5	1.01e5	6765	inactive
Arp10 (GeneID 32969)	1	1.03e5	1.24e5	96590	54680	8265	inactive
trh (GeneID 38065)	1	1.27e5	1.17e5	2.91e5	2.28e5	6770	inactive
trh (GeneID 38065)	2	1.17e5	1.31e5	2.26e5	2.10e5	9095	inactive
CG34396 (GeneID 37398)	1	42535	42865	56730	53210	3240	inactive
CG34396 (GeneID 37398)	2	48855	54620	86270	55595	3695	inactive
Exd2 (GeneID 41374)	1	1.57e5	1.62e5	1.88e5	1.32e5	9415	inactive
Tnks (GeneID 43095)	1	1.54e5	2.08e5	2.16e5	2.48e5	13400	inactive
CG3565 (GeneID 37933)	1	67555	81910	50265	60960	5535	inactive
CG14710 (GeneID 41393)	1	1.22e5	1.16e5	76590	62745	7815	inactive
Mvl (GeneID 42490)	1	1.62e5	1.48e5	1.94e5	2.23e5	14940	inactive
Mst84Dc (GeneID 40887)	1	96655	1.09e5	83600	71330	7235	inactive
CheB53a (GeneID 3346205)	1	1.40e5	1.03e5	1.06e5	99380	13820	inactive
CG13561 (GeneID 37765)	1	1.63e5	1.58e5	1.45e5	1.57e5	12650	inactive
CG6674 (GeneID 39174)	1	2.00e5	1.57e5	1.50e5	86065	16495	inactive
CG12093 (GeneID 38343)	1	1.19e5	82040	2.26e5	1.71e5	8350	inactive
CG15753 (retired record) (GeneID 32306)	1	4140	3785	7470	7330	1790	inactive
sha (GeneID 36213)	1	96465	97770	1.38e5	1.45e5	10710	inactive
E(spl)m6-BFM (GeneID 43159)	1	1.65e5	1.91e5	2.37e5	2.03e5	13895	inactive
CG31418 (GeneID 42084)	1						inactive
CG33775 (GeneID 3772054)	1	1.77e5	1.83e5	2.90e5	3.04e5	17005	inactive

Continued; the last 6 above are carried over.
target gene	reagent	induced reporter light, run 1, well a	induced reporter light, run 1, well b	control promoter light, run 1, well a	control promoter light, run 1, well b	uninduced reporter light, run 1, well a	call
CG12093 (GeneID 38343)	1	1.19e5	82040	2.26e5	1.71e5	8350	inactive
CG15753 (retired record) (GeneID 32306)	1	4140	3785	7470	7330	1790	inactive
sha (GeneID 36213)	1	96465	97770	1.38e5	1.45e5	10710	inactive
E(spl)m6-BFM (GeneID 43159)	1	1.65e5	1.91e5	2.37e5	2.03e5	13895	inactive
CG31418 (GeneID 42084)	1						inactive
CG33775 (GeneID 3772054)	1	1.77e5	1.83e5	2.90e5	3.04e5	17005	inactive
Mys45A (GeneID 35925)	1	97330	1.08e5	1.10e5	1.08e5	9082	inactive
ASPP (GeneID 37422)	1	8490	9265	10700	9915	1750	inactive
Fer2 (GeneID 41961)	1	1.97e5	2.03e5	2.20e5	2.39e5	17940	inactive
sxc (GeneID 35486)	1	1.95e5	1.52e5	1.98e5	2.16e5	13382	inactive
CG31624 (GeneID 35393)	1	70775	93765	60470	63415	4950	inactive
Jon65Aiv (GeneID 38682)	1	1.35e5	1.53e5	2.04e5	1.77e5	7165	inactive
CG15676 (GeneID 37472)	1	46705	59970	41125	49350	2530	inactive
Pvr (GeneID 34127)	1	1.22e5	1.11e5	44480	52125	10405	active
CG30466 (GeneID 246629)	1	1.69e5	1.81e5	2.25e5	2.65e5	17682	inactive
CG2006 (GeneID 43472)	1	1.86e5	2.06e5	2.24e5	2.37e5	10875	inactive
CG15651 (GeneID 37375)	1	48655	41785	33400	46760	1970	inactive
zda (GeneID 37144)	1	83965	92085	1.52e5	1.83e5	7635	inactive
CG5800 (GeneID 32742)	1	88340	75780	1.04e5	73105	10095	inactive
Ercc1 (GeneID 36654)	1	1.17e5	1.54e5	1.61e5	1.20e5	9740	inactive
COX5B (GeneID 33918)	1	1.73e5	1.21e5	1.67e5	1.52e5	10210	inactive
CG14480 (GeneID 36988)	1	97400	1.07e5	1.28e5	1.47e5	10670	inactive
CG7276 (GeneID 39668)	1	2.55e5	2.02e5	3.03e5	3.23e5	10405	inactive
CG4020 (GeneID 31522)	1	1.06e5	1.09e5	1.91e5	2.01e5	6538	inactive
ChAT (GeneID 42249)	1	75550	69785	1.14e5	1.00e5	9365	inactive
ChAT (GeneID 42249)	2	2.21e5	1.92e5	1.98e5	2.02e5	13620	inactive
CG34266 (GeneID 5740465)	1	1.29e5	1.39e5	1.81e5	2.18e5	7405	inactive
sni (GeneID 31761)	1	1.87e5	1.58e5	1.74e5	1.90e5	11530	inactive
CG1924 (GeneID 32180)	1	1.21e5	1.15e5	2.61e5	2.51e5	8085	inactive
CG12278 (GeneID 42486)	1	1.50e5	1.52e5	1.44e5	1.44e5	11680	inactive
CG10616 (GeneID 39420)	1	1.98e5	1.79e5	77685	44140	12942	active
Fntb (GeneID 41989)	1	1.63e5	1.59e5	2.37e5	2.46e5	15865	inactive
Lcp2 (GeneID 35818)	1	1.45e5	1.56e5	1.93e5	1.96e5	14555	inactive
Ipp (GeneID 41701)	1	2.51e5	2.32e5	2.27e5	2.22e5	17400	inactive
CG13705 (GeneID 38587)	1	1.23e5	1.39e5	1.38e5	1.08e5	10020	inactive
Mal-A8 (GeneID 35830)	1	2.03e5	2.19e5	2.28e5	2.11e5	17055	inactive
insv (GeneID 33441)	1	1.25e5	1.08e5	1.22e5	89215	8865	inactive
CG34026 (GeneID 3885569)	1	94935	61195	95885	71350	5778	inactive
GstE4 (GeneID 37109)	1	34790	30640	36895	29150	3295	inactive
Zfrp8 (GeneID 45021)	1	2.03e5	1.99e5	1.57e5	1.79e5	14260	inactive
Mkp3 (GeneID 40081)	1	1.33e5	1.39e5	94385	94895	8530	inactive
Mkp3 (GeneID 40081)	2	1.05e5	97845	1.04e5	89560	8900	inactive
CG12766 (GeneID 38462)	1	1.07e5	1.07e5	1.80e5	1.35e5	6365	inactive
